Results from patent US20050059669A1, “M-substituted benzoic acid derivatives having integrin alpha v beta 3 antagonistic activity” (priority 1999, published 2005).
At least one structure is not confirmed: it was looked up by name or label, or the drawing left a doubt.

Sequences of proteins named here, by UniProt entry; tags and fusion partners are left off. Residues count along the entry.
UniProt P05106, 27-788: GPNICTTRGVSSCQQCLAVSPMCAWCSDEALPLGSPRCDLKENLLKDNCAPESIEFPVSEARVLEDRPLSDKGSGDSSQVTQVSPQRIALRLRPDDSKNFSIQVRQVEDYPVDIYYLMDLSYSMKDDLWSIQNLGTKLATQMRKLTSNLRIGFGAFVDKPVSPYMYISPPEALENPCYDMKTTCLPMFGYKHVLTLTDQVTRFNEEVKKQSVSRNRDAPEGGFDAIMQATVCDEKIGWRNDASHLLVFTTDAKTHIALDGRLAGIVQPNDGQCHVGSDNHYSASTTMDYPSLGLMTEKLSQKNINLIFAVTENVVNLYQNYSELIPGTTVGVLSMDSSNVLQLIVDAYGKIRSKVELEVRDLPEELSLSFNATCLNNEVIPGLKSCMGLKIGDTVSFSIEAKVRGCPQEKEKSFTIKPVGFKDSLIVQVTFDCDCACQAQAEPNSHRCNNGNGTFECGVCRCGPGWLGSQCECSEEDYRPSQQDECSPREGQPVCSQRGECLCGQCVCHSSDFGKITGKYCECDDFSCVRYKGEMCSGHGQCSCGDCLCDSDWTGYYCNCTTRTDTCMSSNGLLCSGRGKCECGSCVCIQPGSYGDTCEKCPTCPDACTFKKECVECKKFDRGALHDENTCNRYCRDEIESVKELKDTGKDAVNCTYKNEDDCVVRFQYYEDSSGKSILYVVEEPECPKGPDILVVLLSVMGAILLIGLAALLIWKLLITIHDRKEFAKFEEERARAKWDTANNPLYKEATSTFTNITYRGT
UniProt P08514, 32-887 limits assumed: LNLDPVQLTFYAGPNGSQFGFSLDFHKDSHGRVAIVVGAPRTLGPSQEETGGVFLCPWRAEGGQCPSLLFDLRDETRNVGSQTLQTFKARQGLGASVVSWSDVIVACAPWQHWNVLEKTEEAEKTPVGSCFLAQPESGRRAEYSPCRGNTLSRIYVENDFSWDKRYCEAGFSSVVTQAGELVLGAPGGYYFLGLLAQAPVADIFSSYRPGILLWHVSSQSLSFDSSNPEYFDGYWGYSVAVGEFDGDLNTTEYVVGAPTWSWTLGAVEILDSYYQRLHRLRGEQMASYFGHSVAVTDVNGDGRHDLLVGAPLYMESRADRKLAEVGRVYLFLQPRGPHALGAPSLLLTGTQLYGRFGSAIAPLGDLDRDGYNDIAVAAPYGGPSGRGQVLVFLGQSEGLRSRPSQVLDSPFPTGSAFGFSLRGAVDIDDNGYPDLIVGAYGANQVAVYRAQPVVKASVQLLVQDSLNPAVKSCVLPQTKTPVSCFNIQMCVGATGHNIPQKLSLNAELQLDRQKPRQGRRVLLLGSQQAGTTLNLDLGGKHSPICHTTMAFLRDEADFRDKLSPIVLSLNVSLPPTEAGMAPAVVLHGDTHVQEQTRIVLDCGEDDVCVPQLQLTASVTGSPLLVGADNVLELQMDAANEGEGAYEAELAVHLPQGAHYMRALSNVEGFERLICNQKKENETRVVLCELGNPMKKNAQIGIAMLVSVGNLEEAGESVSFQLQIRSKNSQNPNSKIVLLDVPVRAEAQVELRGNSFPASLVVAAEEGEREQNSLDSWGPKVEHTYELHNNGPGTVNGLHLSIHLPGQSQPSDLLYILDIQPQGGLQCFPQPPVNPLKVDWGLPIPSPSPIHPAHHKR
UniProt P08514, 891-1039 partner limits assumed: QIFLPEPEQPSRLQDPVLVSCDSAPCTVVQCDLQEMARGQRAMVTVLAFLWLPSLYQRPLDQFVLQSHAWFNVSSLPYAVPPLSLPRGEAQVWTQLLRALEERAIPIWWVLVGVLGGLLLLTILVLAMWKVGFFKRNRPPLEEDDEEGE

Target: GP IIb/IIIa (Homo sapiens, UniProt P05106+P08514)
Assay: GP IIb/IIIa antagonistic activity (method of Pharmacological Test 2 in WO 94/21599)
Type: binding
Conditions: result in words
Description: GP IIb/IIIa antagonistic activity was measured for the compounds according to the present invention. The measurement of the GP IIb/IIIa antagonistic activity was carried out according to the method described in Pharmacological Test 2 in WO 94/21599. As a result, both the compounds prepared in Examples 3 and 6 had significant GP IIb/IIIa antagonistic activity. In particular, the IC50 value of the compound prepared in Example 3 was 2.0 nM.

Question: O=C(NC[C@H](NS(=O)(=O)c1ccccc1)C(=O)O)c1cccc(N2CCN(C3=NCCCN3)CC2)c1 [Example 3, (2S)-Benzenesulfonylamino-3-[3-{4-(1,4,5,6-tetrahydropyrimidin-2-yl)piperazin-1-yl}benzoylamino]-propionic acid] was tested. Which “GP IIb/IIIa antagonistic activity” value did it give?
Answer: significant
